From publication PMC12245036
Results are given in words; binding and its absence hold for the method and conditions named. Binding seen in cells or lysates may run through a third protein. Some results given as binding are weak or reduced against the parent protein; the word gives no strength.

Protein sequences, listed by entry. Tags and fused reporters are not part of them.
UniProt Q92905: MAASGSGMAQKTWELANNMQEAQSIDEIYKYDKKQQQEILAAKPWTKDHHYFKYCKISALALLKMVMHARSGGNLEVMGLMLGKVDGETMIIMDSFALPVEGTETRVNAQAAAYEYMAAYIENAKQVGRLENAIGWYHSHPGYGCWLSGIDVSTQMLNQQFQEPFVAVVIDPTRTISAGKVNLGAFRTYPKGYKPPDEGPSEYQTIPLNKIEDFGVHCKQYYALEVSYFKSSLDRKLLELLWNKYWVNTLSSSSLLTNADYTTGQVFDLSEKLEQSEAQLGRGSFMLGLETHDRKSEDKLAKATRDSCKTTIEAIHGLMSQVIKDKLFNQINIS

Biological target: T1, Hypermethylated in cancer 1 (HIC1) (human (endogenous in MKN45 and HGC27)) (UniProt Q14526)
T1 sequence: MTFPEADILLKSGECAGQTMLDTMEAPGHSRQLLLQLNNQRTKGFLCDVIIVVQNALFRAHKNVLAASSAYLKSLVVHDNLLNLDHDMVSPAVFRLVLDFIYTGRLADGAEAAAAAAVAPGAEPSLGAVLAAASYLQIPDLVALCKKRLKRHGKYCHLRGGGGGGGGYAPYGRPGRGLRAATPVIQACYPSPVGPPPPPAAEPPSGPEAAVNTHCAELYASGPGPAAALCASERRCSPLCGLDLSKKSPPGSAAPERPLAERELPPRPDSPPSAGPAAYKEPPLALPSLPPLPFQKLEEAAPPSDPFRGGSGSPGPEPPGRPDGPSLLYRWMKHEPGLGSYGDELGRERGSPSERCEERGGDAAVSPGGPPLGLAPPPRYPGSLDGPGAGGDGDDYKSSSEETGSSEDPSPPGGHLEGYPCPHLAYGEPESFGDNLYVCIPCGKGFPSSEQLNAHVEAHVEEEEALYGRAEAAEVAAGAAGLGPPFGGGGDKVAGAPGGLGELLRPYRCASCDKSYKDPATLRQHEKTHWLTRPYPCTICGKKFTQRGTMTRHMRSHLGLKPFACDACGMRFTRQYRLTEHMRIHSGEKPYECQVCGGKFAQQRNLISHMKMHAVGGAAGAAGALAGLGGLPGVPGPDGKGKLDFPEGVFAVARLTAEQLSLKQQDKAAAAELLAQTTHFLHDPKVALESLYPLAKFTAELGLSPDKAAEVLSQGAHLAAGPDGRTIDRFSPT
Assay: co-IP; whole-cell extracts of MKN45 and HGC27 cells in IP/Western lysis solution; incubated with HIC1/Jab1 antibody or IgG at 4 °C overnight, then protein A/G agarose beads for 2 h; western blot

binding: binds
Substance: c-Jun activation domain-binding protein 1 (Jab1) (from UniProt Q92905 1-334)
